In publication PMC5703867, “Development of Novel Promiscuous Anti-Chemokine Peptibodies for Treating Autoimmunity and Inflammation” (Frontiers in Immunology, 2017):
These are yes or no findings as the source states them, for the method shown. Some results given as binding are weak or reduced against the parent protein; the word gives no strength.

Sequences of proteins named here, by UniProt entry; tags and fusion partners are left off. A change or cut given only in a name is not applied to a line headed by its entry. Residues count along the entry.
UniProt P13500, residues 24-99: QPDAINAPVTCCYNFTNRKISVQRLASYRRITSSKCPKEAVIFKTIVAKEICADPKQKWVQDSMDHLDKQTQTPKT
UniProt Q99731, residues 22-98: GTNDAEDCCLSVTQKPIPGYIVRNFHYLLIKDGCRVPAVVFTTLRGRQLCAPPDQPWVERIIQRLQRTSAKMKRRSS
UniProt P10147, residues 24-92: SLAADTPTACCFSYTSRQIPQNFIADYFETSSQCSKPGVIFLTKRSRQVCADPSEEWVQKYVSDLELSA
UniProt P13236, residues 24-92: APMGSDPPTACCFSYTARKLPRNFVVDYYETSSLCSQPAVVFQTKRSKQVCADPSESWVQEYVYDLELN
UniProt P13501, residues 24-91: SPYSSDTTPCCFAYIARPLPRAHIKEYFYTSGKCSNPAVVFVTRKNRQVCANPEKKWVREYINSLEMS
UniProt P69168: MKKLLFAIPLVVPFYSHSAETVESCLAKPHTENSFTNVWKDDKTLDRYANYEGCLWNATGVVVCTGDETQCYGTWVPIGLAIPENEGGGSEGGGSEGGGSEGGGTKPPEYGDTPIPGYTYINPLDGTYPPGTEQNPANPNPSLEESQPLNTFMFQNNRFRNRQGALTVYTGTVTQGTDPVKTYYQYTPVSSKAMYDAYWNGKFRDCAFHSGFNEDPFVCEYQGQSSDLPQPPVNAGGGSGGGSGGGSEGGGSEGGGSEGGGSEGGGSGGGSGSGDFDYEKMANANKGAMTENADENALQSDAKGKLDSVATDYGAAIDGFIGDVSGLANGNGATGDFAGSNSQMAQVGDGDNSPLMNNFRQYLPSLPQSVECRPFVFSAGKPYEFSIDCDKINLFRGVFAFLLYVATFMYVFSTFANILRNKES

T1: CXCL11 (human) (UniProt O14625)
T1 sequence: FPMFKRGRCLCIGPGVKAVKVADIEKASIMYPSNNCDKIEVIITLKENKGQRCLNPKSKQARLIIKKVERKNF

T2: CXCL13 (human) (UniProt O43927)
T2 sequence: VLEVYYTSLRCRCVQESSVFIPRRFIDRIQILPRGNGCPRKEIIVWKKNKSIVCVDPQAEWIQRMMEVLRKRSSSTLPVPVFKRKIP

T3: CXCL9 (human) (UniProt Q07325)
T3 sequence: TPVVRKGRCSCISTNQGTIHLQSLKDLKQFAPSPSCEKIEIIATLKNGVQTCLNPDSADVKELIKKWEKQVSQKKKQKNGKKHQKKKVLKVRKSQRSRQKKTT


Key:
[1] = target: T4, CCL2 (human, UniProt P13500 24-99); assay: ELISA; phage ELISA: chemokine coated on maxisorp plates (0.1-1.0 µg/ml in 0.1 M NaHCO3, pH 8.6), BSA block, individual phages 10^7-10^9 PFU per well for 45 min at RT, detected with HRP/anti-M13 antibody, OD450; only the target purified
T4 construct: CCL2, human, recombinant; source: bought: PeproTech

[2] = target: T4, CCL2; assay: ELISA; chemokines coated at 150 ng/well in 0.1 M carbonate pH 9.5, 4% BSA block, BKT130Fc at 0, 1, 10 and 50 µg/ml for 2 h at RT, detected with goat anti-human IgG HRP, O.D. 450 nm
[3] = target: CCL19 (human) (UniProt Q99731); assay: as above
[4] = target: CCL3 (human) (UniProt P10147); assay: as above
[5] = target: CCL4 (human) (UniProt P13236); assay: as above
[6] = target: CCL5 (human) (UniProt P13501); assay: as above
[7] = target: T1, CXCL11 (human); assay: as above
[8] = target: T2, CXCL13 (human); assay: as above
[9] = target: T3, CXCL9 (human); assay: as above

Row | Molecule | binding [1] | binding [2] | binding [3] | binding [4] | binding [5] | binding [6] | binding [7] | binding [8] | binding [9]
1 | phage carrying the BKT130 peptide (from UniProt P69168 19-424) | binds |  |  |  |  |  |  |  | 
2 | SIPSHSIHSAKAGGGSKG (Fc fusion) [BKT130Fc peptibody] |  | binds weakly | no binding (tested: 50 µg/ml) | no binding (tested: 50 µg/ml) | no binding (tested: 50 µg/ml) | binds | binds | no binding (tested: 50 µg/ml) | binds
